Measured values reported in publication PMC2714318.
These are yes or no findings as the source states them, for the method shown. Some binding calls cover weakened binding; strength is not graded here. Where a sequence is shown, tags or fusion partners need not be part of it.

Molecular target: ASP2 (actinobacteria-specific protein 2; SCO1662) from Streptomyces coelicolor (S. coelicolor) (UniProt Q9ADA5)
Test: crystal structure; preliminary X-ray crystallographic analysis of ASP2, data not shown; both purified

binding: binds
B1: ASP2 (actinobacteria-specific protein 2; SCO1662) from Streptomyces coelicolor (protein, UniProt Q9ADA5 1-333)
chain: MIELEGVPELVDPVMVAAFEGWNDAGDAASTAVAHLDREWKGEVFAALDAEDYYDFQVNRPTVFMEDGVRKITWPTTRLSVVRVGGDKPRDLVLVRGIEPSMRWRSFCNELLGFAHELGVELVVVLGALLGDTPHTRPVPISGTTSDADLARRMDLEETKYEGPTGIVGILQEACTHAGVPAVSLWAAVPHYVSQPPNPKATLALLNRLEDLIGVRVPLGELPEDARAWQVGVDQLAAEDTEVAEYVQSLEEARDTAELPEASGEAIAREFERYLRRRDGAGPGGPGGPGGHATADGGDGPAGAPFRRDNPSGRARPPKPPKAGGDDEESSED
